The test has as its target T1, hepatocyte nuclear factor 4α (human (endogenous in HepG2)) (UniProt P41235).
T1 sequence: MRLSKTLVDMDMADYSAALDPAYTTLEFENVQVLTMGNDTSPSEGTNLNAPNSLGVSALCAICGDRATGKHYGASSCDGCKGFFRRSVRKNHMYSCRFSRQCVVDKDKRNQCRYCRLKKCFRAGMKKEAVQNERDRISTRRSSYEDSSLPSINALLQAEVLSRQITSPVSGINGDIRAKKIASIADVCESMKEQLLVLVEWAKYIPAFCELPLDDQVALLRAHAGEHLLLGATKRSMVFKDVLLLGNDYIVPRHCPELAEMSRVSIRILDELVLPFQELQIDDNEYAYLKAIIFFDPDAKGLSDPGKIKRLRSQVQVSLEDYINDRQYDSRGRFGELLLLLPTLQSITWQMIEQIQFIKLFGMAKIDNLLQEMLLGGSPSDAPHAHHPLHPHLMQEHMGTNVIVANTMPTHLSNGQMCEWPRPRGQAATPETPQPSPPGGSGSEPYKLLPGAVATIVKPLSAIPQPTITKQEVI
Put plainly: co-IP; 2 mg total protein lysate of pHBV1.2-transfected HepG2 cells treated with BA or BAA1 (50 uM) for 4 days; 2 ug anti-HNF4α/anti-ERα antibodies with protein A/G magnetic beads overnight at 4 °C; rabbit IgG as negative control; washed three times with PBS; Western blotting.

Protein sequences, listed by entry. Tags and fused reporters are not part of them.
UniProt P03372: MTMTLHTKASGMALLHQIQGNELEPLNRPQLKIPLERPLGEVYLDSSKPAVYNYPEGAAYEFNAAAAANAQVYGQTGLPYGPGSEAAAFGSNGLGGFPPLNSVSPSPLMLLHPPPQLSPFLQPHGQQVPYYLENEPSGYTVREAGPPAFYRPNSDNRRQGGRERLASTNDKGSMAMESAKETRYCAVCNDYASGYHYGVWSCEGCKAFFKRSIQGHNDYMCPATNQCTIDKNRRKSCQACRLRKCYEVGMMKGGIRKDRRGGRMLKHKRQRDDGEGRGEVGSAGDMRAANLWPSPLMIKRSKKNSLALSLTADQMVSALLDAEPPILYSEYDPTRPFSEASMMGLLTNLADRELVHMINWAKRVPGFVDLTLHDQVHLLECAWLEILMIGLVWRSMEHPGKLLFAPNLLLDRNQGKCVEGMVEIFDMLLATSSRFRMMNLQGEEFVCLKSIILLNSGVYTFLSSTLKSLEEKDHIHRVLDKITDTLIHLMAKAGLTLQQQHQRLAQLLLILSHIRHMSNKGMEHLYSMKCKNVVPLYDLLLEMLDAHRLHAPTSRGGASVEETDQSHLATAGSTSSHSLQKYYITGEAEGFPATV

No constants are given. Whether binding was seen depends on the method and setting. Binding seen in cells or lysates may run through a third protein. Some binding calls cover weakened binding; strength is not graded here.

Take “estrogen receptor α (from UniProt P03372 1-595)”: the binding entry is “binds”.

(Values after article PMC9025464.)
